# Test results from the supplement of paper PMC6411743.
# Protein sequences, listed by entry. Tags and fused reporters are not part of them. Lines headed by an entry give the natural chain unless they say otherwise; changes in a name come on top.
# UniProt Q5U5Q3: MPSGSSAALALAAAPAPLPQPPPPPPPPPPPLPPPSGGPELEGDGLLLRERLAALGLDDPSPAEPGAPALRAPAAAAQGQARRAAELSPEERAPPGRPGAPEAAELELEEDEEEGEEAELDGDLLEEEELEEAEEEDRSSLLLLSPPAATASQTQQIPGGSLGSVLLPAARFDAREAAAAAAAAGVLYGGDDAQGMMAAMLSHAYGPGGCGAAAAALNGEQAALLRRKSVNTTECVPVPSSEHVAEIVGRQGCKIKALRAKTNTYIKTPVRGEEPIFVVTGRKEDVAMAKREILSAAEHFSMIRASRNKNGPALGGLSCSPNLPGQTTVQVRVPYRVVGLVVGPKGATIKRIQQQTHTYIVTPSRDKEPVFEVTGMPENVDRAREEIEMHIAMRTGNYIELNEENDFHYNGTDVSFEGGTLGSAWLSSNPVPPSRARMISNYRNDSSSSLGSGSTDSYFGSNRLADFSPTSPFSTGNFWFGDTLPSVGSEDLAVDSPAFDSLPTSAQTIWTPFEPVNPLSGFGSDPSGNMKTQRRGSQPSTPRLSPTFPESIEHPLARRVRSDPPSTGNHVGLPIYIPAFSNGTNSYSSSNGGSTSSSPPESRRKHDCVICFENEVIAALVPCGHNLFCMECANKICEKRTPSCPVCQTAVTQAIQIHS
# UniProt Q6NT76: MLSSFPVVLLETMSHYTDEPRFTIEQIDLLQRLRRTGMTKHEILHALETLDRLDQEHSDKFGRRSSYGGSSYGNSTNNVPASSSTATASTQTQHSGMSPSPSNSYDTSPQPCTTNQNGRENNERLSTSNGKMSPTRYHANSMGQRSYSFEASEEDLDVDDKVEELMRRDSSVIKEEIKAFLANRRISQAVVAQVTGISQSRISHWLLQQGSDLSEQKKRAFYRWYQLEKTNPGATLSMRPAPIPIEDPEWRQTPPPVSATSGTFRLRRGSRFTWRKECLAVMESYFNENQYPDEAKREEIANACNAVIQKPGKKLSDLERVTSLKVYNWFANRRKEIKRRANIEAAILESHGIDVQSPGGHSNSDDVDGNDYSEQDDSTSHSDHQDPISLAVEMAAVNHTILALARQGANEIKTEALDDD
# UniProt Q53QZ3: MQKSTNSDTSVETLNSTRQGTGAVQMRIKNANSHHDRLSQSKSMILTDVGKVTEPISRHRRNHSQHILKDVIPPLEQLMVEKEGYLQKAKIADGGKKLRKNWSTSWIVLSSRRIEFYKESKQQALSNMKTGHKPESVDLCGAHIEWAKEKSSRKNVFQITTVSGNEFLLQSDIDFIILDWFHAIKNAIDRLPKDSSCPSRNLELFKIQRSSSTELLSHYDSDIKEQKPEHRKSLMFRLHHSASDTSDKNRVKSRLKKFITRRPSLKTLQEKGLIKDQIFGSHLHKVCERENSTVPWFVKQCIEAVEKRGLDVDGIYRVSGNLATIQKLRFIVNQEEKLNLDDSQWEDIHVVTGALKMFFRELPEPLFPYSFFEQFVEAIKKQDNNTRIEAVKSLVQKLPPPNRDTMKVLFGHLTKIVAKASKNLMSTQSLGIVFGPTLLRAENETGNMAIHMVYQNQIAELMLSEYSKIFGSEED
# UniProt Q5VVQ6: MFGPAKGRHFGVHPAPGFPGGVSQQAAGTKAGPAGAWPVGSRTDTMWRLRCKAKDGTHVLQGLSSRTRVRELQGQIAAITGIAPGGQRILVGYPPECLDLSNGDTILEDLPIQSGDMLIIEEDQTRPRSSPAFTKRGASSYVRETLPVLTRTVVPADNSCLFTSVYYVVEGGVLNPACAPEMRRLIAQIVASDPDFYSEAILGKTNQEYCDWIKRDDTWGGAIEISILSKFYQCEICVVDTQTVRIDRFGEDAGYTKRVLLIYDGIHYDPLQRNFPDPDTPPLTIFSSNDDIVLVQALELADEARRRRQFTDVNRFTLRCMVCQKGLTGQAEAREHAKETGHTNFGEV
# UniProt Q5TZA2: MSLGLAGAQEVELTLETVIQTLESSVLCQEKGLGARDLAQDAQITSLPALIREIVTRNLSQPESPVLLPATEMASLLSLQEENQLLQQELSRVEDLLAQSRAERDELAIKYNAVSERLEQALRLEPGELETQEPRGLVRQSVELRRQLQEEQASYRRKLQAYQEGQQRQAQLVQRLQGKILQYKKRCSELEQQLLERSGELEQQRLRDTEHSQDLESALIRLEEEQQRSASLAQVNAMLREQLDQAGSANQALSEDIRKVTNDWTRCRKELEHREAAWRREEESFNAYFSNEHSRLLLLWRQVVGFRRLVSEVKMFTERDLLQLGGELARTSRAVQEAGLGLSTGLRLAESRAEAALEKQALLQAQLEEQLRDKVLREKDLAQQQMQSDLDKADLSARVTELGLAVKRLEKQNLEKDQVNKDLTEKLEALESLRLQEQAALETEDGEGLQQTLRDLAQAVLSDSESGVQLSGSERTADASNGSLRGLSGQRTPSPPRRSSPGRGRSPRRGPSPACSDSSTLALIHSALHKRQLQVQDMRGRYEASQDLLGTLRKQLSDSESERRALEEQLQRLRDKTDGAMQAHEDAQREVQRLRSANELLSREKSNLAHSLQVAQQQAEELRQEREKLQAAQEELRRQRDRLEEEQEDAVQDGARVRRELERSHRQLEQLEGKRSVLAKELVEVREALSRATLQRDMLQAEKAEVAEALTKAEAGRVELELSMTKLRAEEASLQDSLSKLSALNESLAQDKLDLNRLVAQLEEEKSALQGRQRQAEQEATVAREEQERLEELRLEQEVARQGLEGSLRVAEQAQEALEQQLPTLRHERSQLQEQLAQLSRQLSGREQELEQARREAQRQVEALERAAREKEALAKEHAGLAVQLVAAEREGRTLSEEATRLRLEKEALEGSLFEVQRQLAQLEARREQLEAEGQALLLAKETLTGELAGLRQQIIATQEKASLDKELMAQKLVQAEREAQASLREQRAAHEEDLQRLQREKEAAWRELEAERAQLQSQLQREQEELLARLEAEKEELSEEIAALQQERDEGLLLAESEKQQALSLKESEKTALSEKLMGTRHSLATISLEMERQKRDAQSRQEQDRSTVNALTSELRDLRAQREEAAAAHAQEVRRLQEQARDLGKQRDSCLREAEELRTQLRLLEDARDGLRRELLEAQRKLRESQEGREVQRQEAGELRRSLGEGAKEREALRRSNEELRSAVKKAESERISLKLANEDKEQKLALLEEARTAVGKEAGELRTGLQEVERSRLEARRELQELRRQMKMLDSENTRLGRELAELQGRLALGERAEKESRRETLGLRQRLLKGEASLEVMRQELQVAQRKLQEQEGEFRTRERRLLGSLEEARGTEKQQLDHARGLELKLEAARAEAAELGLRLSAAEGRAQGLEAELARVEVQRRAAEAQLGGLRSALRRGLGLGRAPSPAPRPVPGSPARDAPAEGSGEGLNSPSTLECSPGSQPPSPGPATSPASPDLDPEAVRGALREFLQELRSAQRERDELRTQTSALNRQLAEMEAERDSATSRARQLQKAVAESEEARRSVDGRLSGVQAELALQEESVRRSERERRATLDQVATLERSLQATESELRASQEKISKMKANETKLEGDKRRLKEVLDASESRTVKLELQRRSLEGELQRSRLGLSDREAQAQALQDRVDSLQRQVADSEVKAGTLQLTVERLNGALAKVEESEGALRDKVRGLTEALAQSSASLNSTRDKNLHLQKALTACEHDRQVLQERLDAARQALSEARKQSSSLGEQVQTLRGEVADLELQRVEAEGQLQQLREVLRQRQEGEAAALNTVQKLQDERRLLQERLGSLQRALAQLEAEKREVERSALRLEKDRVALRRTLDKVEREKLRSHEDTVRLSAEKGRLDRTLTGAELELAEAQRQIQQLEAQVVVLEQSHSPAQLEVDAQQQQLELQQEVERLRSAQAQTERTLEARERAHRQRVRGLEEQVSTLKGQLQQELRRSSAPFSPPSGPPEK
# UniProt Q5JSZ5: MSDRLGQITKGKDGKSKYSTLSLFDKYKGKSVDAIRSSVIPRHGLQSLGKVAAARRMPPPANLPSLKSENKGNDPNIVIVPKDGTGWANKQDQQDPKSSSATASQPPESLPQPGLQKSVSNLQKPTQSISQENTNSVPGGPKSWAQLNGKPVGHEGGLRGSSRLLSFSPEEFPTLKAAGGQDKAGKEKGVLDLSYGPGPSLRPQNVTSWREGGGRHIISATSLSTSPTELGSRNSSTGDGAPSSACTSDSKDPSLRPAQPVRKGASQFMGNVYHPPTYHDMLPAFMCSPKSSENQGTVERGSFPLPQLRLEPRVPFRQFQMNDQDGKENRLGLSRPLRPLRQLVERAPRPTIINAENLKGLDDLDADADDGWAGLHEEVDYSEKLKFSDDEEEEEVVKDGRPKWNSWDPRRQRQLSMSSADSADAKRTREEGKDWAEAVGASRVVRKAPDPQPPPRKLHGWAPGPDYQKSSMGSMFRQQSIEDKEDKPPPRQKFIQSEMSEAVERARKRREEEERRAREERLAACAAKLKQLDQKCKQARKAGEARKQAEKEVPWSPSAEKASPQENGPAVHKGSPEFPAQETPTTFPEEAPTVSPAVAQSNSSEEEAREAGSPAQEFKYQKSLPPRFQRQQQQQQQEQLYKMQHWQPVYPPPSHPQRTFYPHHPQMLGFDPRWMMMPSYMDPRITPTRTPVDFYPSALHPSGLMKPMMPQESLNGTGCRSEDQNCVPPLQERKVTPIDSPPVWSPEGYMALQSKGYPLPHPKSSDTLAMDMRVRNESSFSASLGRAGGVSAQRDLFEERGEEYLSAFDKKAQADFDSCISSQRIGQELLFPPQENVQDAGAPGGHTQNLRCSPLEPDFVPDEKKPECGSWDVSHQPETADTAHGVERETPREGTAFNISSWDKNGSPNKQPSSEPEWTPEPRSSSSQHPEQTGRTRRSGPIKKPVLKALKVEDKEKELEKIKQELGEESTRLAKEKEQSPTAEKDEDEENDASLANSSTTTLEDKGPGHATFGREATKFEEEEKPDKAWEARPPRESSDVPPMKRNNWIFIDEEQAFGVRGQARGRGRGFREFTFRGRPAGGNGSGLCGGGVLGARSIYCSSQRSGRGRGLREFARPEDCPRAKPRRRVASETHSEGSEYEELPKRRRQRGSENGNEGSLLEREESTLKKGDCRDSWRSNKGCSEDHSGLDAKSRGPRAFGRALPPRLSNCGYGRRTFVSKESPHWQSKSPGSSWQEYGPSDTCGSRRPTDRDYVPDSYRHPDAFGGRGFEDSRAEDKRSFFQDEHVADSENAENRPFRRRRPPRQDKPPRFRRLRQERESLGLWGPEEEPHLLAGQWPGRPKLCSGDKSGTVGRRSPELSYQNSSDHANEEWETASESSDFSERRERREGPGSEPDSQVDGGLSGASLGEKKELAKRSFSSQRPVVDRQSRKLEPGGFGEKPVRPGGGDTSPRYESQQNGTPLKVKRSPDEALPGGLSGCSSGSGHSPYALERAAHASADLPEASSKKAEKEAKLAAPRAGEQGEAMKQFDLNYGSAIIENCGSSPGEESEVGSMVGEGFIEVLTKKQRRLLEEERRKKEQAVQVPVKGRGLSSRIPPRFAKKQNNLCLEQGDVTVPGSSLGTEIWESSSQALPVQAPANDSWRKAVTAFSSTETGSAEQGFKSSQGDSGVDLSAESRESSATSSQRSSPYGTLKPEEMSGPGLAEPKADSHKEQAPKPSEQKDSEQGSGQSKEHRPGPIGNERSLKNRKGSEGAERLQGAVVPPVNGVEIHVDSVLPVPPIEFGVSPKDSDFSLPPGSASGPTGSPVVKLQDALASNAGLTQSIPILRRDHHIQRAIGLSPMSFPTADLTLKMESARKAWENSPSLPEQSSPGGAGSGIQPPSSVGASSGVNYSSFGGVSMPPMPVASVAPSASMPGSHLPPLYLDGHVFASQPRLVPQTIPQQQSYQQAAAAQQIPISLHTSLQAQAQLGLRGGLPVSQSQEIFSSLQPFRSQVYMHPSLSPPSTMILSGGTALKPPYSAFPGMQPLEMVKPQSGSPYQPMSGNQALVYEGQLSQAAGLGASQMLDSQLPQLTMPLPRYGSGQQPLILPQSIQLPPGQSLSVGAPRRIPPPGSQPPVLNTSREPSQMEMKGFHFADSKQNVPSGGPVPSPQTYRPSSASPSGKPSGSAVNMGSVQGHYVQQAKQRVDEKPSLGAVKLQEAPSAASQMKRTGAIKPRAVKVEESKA
# UniProt Q5JTJ3: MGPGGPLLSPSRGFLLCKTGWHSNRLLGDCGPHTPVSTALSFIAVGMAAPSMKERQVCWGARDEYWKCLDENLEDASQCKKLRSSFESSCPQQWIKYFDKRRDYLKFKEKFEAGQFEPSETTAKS
# UniProt Q587I9: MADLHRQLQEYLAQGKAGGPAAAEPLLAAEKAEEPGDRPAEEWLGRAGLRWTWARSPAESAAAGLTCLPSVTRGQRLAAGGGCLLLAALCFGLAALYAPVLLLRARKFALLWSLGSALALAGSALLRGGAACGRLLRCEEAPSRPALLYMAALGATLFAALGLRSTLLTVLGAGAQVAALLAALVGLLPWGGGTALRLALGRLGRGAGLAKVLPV
# ± gives the standard deviation of the averaged measurements. The entries are a selection whose mix differs from that of the whole data set.
# Compound: Nc1ncnc2c1ncn2[C@@H]1O[C@H](COP(=O)(O)OP(=O)(O)OP(=O)(O)O)[C@@H](O)[C@H]1O [adenosine triphosphate]
# Assay: NP40-soluble protein abundance relative to vehicle (solubility fold change) (ratio); higher = more soluble protein in presence of ATP
# Summary of the method: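 Jurkat crude lysate (Dounce-homogenised) was treated with eight concentrations from 0.1 to 10 mM for 10 min at room temperature, then 3 min at 37 °C. It was solubilised with 0.8% NP40 and benzonase (60 min, 4 °C) and ultracentrifuged, and the supernatant was TMT-labelled for LC-MS/MS. Intensities were vsn-normalised, and the value is the fold change against the NP40-processed vehicle per replicate, from three independent experiments.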
Target,NP40-soluble protein abundance (concentration: 1mM),NP40-soluble protein abundance (concentration: 2mM),NP40-soluble protein abundance (concentration: 4mM),NP40-soluble protein abundance (concentration: 6mM),NP40-soluble protein abundance (concentration: 8mM),NP40-soluble protein abundance (concentration: 10mM)
UniProt Q68E01-2|Q68E01,1.12 ± 0.22,1.06 ± 0.14,1.1 ± 0.14,1.09 ± 0.13,1.11 ± 0.14,1.12 ± 0.15
UniProt Q5T6F0,0.916 ± 0.099,0.941 ± 0.028,0.978 ± 0.092,0.931 ± 0.034,0.953 ± 0.068,1.01 ± 0.044
UniProt Q4KMQ2 and related entries,0.984 ± 0.033,0.979 ± 0.054,0.954 ± 0.029,0.93 ± 0.047,0.935 ± 0.032,0.97 ± 0.059
DNTTIP2 (UniProt Q5QJE6),1.22 ± 0.12,1.27 ± 0.072,1.31 ± 0.039,1.42 ± 0.089,1.334 ± 0.006,1.36 ± 0.057
UniProt Q5U5Q3 and related entries,0.939 ± 0.019,0.977 ± 0.076,0.904 ± 0.066,0.954 ± 0.15,0.868 ± 0.12,0.978 ± 0.13
CCDC58 (UniProt Q4VC31),0.936 ± 0.093,0.938 ± 0.05,0.936 ± 0.061,0.982 ± 0.057,0.904 ± 0.013,0.858 ± 0.067
UniProt Q5VTB9 and related entries,0.935 ± 0.037,0.93 ± 0.048,0.94 ± 0.02,0.951 ± 0.022,0.92 ± 0.021,0.943 ± 0.032
ZCCHC8 (UniProt Q6NZY4),0.987 ± 0.089,0.97 ± 0.094,0.991 ± 0.086,1.07 ± 0.18,1.07 ± 0.095,1.09 ± 0.1
UniProt Q6NT76 and related entries,0.93 ± 0.076,0.932 ± 0.044,0.94 ± 0.055,0.972 ± 0.046,0.934 ± 0.027,0.9101 ± 0.0044
TP53I3 (UniProt Q53FA7),0.957 ± 0.026,0.944 ± 0.048,0.949 ± 0.014,0.92 ± 0.059,0.934 ± 0.025,0.95 ± 0.013
UniProt Q5VW32,0.996 ± 0.037,0.966 ± 0.054,0.931 ± 0.024,0.94 ± 0.091,0.945 ± 0.026,0.941 ± 0.082
ARHGAP15 (UniProt Q53QZ3),1.08 ± 0.011,1.06 ± 0.0099,1.051 ± 0.0069,1.07 ± 0.039,1.07 ± 0.034,1.06 ± 0.035
OCIAD2 (UniProt Q56VL3),0.914 ± 0.054,0.9391 ± 0.0027,0.938 ± 0.03,0.872 ± 0.086,0.91 ± 0.041,0.894 ± 0.063
KLHL26 (UniProt Q53HC5),1.11 ± 0.04,1.26 ± 0.1,1.17 ± 0.05,1.08 ± 0.068,1.17 ± 0.044,1.17 ± 0.3
UniProt Q5VVQ6 and related entries,1.03 ± 0.074,0.999 ± 0.053,1.01 ± 0.073,1.02 ± 0.12,1.02 ± 0.097,1 ± 0.062
UniProt Q5F1R6 and related entries,1.01 ± 0.051,1.09 ± 0.085,1.14 ± 0.071,1.12 ± 0.039,1.19 ± 0.017,1.24 ± 0.073
UniProt Q5VWN6,1.24 ± 0.051,1.22 ± 0.068,1.31 ± 0.1,1.25 ± 0.099,1.27 ± 0.12,1.27 ± 0.063
CROCC (UniProt Q5TZA2),0.944 ± 0.083,0.974 ± 0.085,0.935 ± 0.058,0.991 ± 0.061,0.921 ± 0.035,0.91 ± 0.093
TBCEL (UniProt Q5QJ74),1.08 ± 0.038,1.2 ± 0.23,1.09 ± 0.049,1.01 ± 0.12,0.984 ± 0.065,1.02 ± 0.099
UniProt Q5JSZ5,1.02 ± 0.094,1.03 ± 0.048,1.15 ± 0.093,1.27 ± 0.12,1.31 ± 0.074,1.51 ± 0.1
UniProt Q5JTJ3 and related entries,1.25 ± 0.41,1.05 ± 0.017,0.946 ± 0.021,1.112 ± 0.0083,0.92 ± 0.022,0.958 ± 0.019
CIAPIN1 (UniProt Q6FI81),0.955 ± 0.037,0.933 ± 0.032,0.922 ± 0.039,0.947 ± 0.038,0.905 ± 0.033,0.905 ± 0.018
UniProt Q6F5E8 and related entries,1.09 ± 0.021,1.07 ± 0.052,1.15 ± 0.066,1.15 ± 0.14,1.17 ± 0.1,1.23 ± 0.11
SFT2D3 (UniProt Q587I9),0.983 ± 0.079,1 ± 0.054,1.02 ± 0.049,1.03 ± 0.1,0.97 ± 0.041,1 ± 0.058
Q5VZU9 and related entries (UniProt P29144),1.05 ± 0.097,0.989 ± 0.055,0.965 ± 0.039,0.943 ± 0.05,1.01 ± 0.023,0.97 ± 0.045
UBAP2 (UniProt Q5T6F2),0.935 ± 0.063,0.961 ± 0.031,0.955 ± 0.019,1.01 ± 0.037,0.944 ± 0.02,0.967 ± 0.042
UniProt Q5RI15 and related entries,1.06 ± 0.17,1.11 ± 0.1,1.03 ± 0.024,1.21 ± 0.14,0.955 ± 0.079,0.9581 ± 0.0094
UniProt Q6PCB8 and related entries,0.937 ± 0.058,0.91 ± 0.036,0.943 ± 0.046,0.945 ± 0.044,0.9504 ± 0.0084,0.897 ± 0.073
UniProt Q5T8I3 and related entries,1.03 ± 0.063,1.07 ± 0.042,1.16 ± 0.14,1.09 ± 0.11,1.04 ± 0.047,1.06 ± 0.049
UniProt Q5T3I0 and related entries,1.17 ± 0.09,1.24 ± 0.087,1.28 ± 0.085,1.35 ± 0.048,1.39 ± 0.084,1.48 ± 0.11

# Whole records, quoted from the list. Values in the order: NP40-soluble protein abundance (concentration: 1mM)	NP40-soluble protein abundance (concentration: 2mM)	NP40-soluble protein abundance (concentration: 4mM)	NP40-soluble protein abundance (concentration: 6mM)	NP40-soluble protein abundance (concentration: 8mM)	NP40-soluble protein abundance (concentration: 10mM)
# UniProt Q5JSZ5 is listed with 1.02 ± 0.094	1.03 ± 0.048	1.15 ± 0.093	1.27 ± 0.12	1.31 ± 0.074	1.51 ± 0.1
# UniProt Q5JTJ3 and related entries is listed with 1.25 ± 0.41	1.05 ± 0.017	0.946 ± 0.021	1.112 ± 0.0083	0.92 ± 0.022	0.958 ± 0.019
